Test results published in the supplement of paper PMC10849652.
Some of the results follow.

Chains of the proteins cited; added tags and fusions are not shown. Lines headed by an entry give the natural chain unless they say otherwise; changes in a name come on top.
UniProt O14828: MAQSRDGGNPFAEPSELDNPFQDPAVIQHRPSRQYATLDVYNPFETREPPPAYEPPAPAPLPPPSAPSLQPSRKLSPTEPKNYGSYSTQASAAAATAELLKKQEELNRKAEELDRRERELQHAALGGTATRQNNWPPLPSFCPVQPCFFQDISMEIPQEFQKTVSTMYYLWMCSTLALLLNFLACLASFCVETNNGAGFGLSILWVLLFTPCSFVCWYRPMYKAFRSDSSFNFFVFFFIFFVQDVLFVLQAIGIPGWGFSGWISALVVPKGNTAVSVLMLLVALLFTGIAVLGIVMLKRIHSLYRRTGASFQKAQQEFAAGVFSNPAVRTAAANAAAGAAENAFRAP
UniProt O95486: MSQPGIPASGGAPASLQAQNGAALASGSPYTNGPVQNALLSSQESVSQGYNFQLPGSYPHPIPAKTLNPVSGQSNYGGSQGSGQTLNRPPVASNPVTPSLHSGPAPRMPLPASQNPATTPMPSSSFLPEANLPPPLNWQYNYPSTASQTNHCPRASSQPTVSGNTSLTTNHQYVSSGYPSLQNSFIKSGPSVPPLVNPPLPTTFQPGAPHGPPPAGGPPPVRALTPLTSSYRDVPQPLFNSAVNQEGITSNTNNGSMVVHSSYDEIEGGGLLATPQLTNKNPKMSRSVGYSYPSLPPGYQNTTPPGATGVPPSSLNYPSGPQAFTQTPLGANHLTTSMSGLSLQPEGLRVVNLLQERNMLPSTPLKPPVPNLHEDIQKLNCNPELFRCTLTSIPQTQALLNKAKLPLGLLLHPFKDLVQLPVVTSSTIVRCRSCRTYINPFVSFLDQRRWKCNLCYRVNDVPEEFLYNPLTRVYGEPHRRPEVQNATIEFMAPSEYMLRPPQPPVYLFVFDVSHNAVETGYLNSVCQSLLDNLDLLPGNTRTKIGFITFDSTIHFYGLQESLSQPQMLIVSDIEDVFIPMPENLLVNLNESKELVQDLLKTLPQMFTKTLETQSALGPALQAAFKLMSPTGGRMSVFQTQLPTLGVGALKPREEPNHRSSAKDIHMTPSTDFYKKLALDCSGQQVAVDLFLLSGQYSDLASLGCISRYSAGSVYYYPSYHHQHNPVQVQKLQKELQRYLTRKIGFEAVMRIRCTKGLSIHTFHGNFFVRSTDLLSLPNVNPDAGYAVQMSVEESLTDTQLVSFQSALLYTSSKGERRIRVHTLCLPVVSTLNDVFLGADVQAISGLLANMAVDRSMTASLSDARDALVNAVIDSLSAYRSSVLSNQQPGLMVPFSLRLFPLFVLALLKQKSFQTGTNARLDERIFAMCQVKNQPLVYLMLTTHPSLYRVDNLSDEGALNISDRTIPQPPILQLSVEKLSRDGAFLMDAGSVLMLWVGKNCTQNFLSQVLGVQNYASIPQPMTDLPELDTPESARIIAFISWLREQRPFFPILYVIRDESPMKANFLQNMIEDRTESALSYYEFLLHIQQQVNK
UniProt Q9UPW6: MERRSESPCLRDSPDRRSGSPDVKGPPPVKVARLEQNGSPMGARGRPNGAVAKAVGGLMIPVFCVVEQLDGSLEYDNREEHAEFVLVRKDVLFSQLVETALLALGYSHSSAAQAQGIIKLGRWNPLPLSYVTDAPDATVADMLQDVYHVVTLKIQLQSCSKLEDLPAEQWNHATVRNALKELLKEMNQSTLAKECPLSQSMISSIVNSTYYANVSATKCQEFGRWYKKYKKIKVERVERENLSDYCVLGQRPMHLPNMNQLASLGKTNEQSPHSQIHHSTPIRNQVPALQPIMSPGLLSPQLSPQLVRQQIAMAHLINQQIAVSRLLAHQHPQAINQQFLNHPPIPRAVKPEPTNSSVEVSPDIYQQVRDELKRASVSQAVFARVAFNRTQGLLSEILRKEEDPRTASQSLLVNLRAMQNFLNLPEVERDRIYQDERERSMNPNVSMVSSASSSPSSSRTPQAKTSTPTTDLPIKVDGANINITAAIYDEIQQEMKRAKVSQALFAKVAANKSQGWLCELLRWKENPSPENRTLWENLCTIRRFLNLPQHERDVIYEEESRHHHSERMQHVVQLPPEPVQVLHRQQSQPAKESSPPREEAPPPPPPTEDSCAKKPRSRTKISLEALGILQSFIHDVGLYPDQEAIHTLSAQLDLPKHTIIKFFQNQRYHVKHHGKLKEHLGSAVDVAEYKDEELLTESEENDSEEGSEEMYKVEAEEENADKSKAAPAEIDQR
UniProt Q9NXZ1: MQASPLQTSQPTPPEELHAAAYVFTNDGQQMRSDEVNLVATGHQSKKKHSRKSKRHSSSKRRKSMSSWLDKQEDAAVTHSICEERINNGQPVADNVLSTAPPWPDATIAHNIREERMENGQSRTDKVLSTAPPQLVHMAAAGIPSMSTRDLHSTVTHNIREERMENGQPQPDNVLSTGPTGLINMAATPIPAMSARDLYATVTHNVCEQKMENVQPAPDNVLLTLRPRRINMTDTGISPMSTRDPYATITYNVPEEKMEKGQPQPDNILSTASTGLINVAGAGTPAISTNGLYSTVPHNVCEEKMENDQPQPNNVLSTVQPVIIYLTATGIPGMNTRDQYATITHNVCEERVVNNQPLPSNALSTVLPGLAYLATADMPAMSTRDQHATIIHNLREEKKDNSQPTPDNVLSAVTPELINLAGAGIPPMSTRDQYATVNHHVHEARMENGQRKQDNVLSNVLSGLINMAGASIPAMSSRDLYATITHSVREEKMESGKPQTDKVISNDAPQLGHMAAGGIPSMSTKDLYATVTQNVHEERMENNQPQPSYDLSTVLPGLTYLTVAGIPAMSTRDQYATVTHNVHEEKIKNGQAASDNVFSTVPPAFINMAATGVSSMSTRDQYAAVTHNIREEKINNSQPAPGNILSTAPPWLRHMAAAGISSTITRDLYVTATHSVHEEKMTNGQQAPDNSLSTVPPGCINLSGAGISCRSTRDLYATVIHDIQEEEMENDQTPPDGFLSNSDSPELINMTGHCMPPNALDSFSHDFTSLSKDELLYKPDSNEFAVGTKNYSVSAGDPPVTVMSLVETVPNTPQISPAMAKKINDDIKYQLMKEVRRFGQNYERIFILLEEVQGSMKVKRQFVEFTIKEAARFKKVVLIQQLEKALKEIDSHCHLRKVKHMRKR
UniProt Q68CR1: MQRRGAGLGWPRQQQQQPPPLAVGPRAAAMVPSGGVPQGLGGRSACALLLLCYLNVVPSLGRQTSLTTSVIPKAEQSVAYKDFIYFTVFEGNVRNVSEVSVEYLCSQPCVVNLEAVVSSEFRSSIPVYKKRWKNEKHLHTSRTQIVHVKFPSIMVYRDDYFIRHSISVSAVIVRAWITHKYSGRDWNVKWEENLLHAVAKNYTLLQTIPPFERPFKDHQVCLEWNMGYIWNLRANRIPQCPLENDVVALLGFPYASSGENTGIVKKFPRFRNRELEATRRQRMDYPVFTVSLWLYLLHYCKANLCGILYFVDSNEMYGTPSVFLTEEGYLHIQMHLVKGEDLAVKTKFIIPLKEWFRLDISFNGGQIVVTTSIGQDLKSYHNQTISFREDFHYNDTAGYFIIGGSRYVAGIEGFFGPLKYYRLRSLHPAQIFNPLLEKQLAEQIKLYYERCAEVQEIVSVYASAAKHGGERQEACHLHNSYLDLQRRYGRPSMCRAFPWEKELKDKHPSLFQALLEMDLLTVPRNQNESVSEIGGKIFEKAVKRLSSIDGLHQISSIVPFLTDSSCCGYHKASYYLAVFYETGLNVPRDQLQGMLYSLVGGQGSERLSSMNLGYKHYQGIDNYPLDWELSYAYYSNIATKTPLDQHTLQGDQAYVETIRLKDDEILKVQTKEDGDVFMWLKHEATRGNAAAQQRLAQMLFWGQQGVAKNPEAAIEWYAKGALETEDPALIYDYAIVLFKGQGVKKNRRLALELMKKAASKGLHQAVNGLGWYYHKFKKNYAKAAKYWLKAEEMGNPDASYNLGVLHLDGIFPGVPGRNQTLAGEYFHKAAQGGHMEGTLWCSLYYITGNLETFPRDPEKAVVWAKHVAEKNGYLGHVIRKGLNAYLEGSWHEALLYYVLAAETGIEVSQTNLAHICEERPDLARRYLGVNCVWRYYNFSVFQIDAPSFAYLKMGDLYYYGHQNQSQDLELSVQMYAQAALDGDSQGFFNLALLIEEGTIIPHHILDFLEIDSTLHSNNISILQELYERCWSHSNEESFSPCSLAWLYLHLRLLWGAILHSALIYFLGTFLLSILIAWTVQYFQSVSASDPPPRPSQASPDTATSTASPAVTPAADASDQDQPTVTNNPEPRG
UniProt Q9UGP8: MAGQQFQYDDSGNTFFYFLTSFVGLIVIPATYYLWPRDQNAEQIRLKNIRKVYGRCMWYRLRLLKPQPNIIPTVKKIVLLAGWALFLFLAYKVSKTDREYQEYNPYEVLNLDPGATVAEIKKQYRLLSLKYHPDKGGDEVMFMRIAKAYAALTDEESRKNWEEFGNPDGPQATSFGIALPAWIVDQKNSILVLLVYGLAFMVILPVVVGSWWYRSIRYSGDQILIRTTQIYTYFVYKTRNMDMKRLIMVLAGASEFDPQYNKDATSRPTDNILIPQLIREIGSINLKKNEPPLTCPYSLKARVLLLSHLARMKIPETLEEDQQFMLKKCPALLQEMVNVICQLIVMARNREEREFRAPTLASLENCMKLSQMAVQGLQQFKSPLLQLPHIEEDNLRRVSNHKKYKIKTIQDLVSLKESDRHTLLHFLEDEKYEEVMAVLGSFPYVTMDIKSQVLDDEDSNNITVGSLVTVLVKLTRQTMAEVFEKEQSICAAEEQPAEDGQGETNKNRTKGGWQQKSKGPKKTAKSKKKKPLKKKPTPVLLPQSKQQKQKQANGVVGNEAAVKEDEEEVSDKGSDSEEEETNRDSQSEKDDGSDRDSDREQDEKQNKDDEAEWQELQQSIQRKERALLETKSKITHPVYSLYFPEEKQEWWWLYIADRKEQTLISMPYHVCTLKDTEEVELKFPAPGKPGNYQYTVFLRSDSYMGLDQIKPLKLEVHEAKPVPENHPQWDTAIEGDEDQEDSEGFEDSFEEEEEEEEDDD
UniProt Q5K651: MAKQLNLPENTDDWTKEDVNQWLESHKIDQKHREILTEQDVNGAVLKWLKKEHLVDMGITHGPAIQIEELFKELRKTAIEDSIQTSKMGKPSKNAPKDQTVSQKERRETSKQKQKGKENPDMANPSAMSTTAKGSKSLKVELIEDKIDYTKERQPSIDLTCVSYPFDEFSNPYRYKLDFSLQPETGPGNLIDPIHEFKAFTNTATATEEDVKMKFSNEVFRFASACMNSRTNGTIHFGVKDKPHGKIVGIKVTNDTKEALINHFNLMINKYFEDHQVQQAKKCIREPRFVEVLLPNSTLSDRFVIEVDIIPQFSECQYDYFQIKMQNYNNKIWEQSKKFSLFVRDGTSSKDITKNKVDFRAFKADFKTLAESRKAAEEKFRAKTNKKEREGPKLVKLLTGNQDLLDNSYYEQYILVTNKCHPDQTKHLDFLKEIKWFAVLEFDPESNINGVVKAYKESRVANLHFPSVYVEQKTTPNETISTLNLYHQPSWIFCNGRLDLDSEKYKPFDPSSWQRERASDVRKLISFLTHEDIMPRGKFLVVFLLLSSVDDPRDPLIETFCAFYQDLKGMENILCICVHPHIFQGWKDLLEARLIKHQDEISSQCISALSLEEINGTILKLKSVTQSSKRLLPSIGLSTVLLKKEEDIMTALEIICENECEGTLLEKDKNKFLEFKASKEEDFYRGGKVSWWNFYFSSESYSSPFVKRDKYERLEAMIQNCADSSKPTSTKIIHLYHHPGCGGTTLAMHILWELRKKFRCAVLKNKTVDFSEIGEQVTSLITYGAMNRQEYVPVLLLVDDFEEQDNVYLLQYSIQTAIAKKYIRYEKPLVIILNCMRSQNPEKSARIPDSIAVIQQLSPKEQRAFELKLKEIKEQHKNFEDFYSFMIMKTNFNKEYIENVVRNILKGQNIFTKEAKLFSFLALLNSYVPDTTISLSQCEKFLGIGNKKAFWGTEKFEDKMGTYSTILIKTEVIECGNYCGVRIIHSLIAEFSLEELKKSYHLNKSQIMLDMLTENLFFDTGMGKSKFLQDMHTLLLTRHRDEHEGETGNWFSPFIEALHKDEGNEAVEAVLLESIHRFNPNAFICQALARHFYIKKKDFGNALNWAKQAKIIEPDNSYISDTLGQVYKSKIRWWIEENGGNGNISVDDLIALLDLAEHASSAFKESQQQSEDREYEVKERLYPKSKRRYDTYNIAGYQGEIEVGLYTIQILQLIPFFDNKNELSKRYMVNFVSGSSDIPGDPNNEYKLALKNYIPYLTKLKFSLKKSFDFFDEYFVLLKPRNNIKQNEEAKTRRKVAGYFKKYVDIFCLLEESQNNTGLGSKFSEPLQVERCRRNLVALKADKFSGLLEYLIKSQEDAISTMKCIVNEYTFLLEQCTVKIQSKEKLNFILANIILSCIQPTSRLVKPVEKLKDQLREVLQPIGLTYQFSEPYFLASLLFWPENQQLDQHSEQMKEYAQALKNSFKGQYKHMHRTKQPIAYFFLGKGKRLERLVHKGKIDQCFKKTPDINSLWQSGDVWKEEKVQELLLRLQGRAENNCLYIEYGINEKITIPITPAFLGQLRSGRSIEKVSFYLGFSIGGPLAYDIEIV

Assays:
Assay in all cases: log2 fold change, soluble protein after heating vs DMSO (PISA); higher = thermal stabilisation; K562 lysate, 10 uM; active = over 0.2 and 3.5 SD of the protein, either way, in both replicates (recomputed)
alvocidib = compound: CN1CC[C@H](c2c(O)cc(O)c3c(=O)cc(-c4ccccc4Cl)oc23)[C@H](O)C1 [alvocidib]
In short: (§1)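 Pellets of K562 cells were dounce-homogenised in PBS pH 7.4 with 1 mM MgCl2, and the crude extract was held at 1 mg/mL protein for a 30 min treatment with 10 μM compound. Aliquots were heated for 3 min over 48°C-58°C and pooled before NP-40 was added to 0.5% at 4°C. The supernatant from 21,000xg for 90 min was quantified by TMTpro 16plex LC-MS/MS with channel sums equalised. Values are reported from duplicates as log-two fold change in thermal stability relative to solvent controls.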

Tubastatin A = compound: CN1CCc2c(c3ccccc3n2Cc2ccc(C(=O)NO)cc2)C1 [Tubastatin A]
In short: as §1

[1] = compound: CNC(=O)C1=CC=CC=C1NC2=NC(=NC=C2Cl)NC3=C(C=C(C=C3)N4CCOCC4)OC
In short: as §1

defactinib = compound: CNC(=O)c1ccc(Nc2ncc(C(F)(F)F)c(NCc3nccnc3N(C)S(C)(=O)=O)n2)cc1 [defactinib]
In short: as §1

[2] = compound: CNc1nc(-c2ccc3c(N)n[nH]c3c2)cc(N2C[C@@H](C(=O)NC3CCCCC3)CC[C@H]2C)n1
In short: as §1

encorafenib = compound: COC(=O)N[C@@H](C)CNc1nccc(-c2cn(C(C)C)nc2-c2cc(Cl)cc(NS(C)(=O)=O)c2F)n1 [encorafenib]
In short: as §1

[3] = compound: COC(=O)[C@H](CCSC)NC(=O)C1=C(C=C(C=C1)NC[C@H](CS)N)C2=CC=CC=C2
In short: as §1

alisertib = compound: COc1cc(Nc2ncc3c(n2)-c2ccc(Cl)cc2C(c2c(F)cccc2OC)=NC3)ccc1C(=O)O [alisertib]
In short: as §1

[4] = compound: COc1cc2nc(-c3cc(F)ccc3O)nc(N[C@@H]3CNC[C@H]3C(C)(C)O)c2cc1OC
In short: as §1

gefitinib = compound: COc1cc2ncnc(Nc3ccc(F)c(Cl)c3)c2cc1OCCCN1CCOCC1 [gefitinib]
In short: as §1

lapatinib = compound: CS(=O)(=O)CCNCc1ccc(-c2ccc3ncnc(Nc4ccc(OCc5cccc(F)c5)c(Cl)c4)c3c2)o1 [lapatinib]
In short: as §1

pictilisib = compound: CS(=O)(=O)N1CCN(Cc2cc3nc(-c4cccc5[nH]ncc45)nc(N4CCOCC4)c3s2)CC1 [pictilisib]
In short: as §1

crizotinib = compound: C[C@@H](Oc1cc(-c2cnn(C3CCNCC3)c2)cnc1N)c1c(Cl)ccc(F)c1Cl [crizotinib]
In short: as §1

[5] = compound: C[C@H](C1=CC=C(C=C1)C(=O)NC2=C3C=CNC3=NC=C2)N
In short: as §1

duvelisib = compound: C[C@H](Nc1ncnc2nc[nH]c12)c1cc2cccc(Cl)c2c(=O)n1-c1ccccc1 [duvelisib]
In short: as §1

gandotinib = compound: Cc1cc(Nc2cc(CN3CCOCC3)c3nc(C)c(Cc4ccc(Cl)cc4F)n3n2)n[nH]1 [gandotinib]
In short: as §1

tozasertib = compound: Cc1cc(Nc2cc(N3CCN(C)CC3)nc(Sc3ccc(NC(=O)C4CC4)cc3)n2)n[nH]1 [tozasertib]
In short: as §1

doramapimod = compound: Cc1ccc(-n2nc(C(C)(C)C)cc2NC(=O)Nc2ccc(OCCN3CCOCC3)c3ccccc23)cc1 [doramapimod]
In short: as §1

bafetinib = compound: Cc1ccc(NC(=O)c2ccc(CN3CC[C@H](N(C)C)C3)c(C(F)(F)F)c2)cc1Nc1nccc(-c2cncnc2)n1 [bafetinib]
In short: as §1

[6] = compound: Cc1cccc(CC(=O)N2CCc3c2ccc(-c2cn(C)c4ncnc(N)c24)c3F)n1
In short: as §1

Measured: log2 fold change

SAMHD1 (UniProt Q9Y3Z3)
inactive: alvocidib -0.019 | Tubastatin A -0.072 | [1] 0.041 | defactinib -0.021 | [2] -0.015 | encorafenib 0 | [3] 0.099 | alisertib -0.013 | [4] 0.02 | gefitinib 0.044 | lapatinib 0.02 | pictilisib -0.071 | crizotinib -0.033 | [5] -0.038 | duvelisib 0.013 | gandotinib -0.029 | tozasertib 0.032 | doramapimod -0.005 | bafetinib -0.071 | [6] 0.028

SEMA4C (UniProt Q9C0C4)
inactive: alvocidib 0.015 | Tubastatin A 0.067 | [1] 0.01 | defactinib -0.018 | [2] 0.011 | encorafenib 0.026 | [3] -0.048 | alisertib 0.018 | [4] 0.002 | gefitinib 0.007 | lapatinib 0.001 | pictilisib -0.113 | crizotinib 0.08 | [5] -0.003 | duvelisib 0.012 | gandotinib -0.02 | tozasertib 0.016 | doramapimod 0.047 | bafetinib 0.02 | [6] 0.022

SCAMP3 (UniProt O14828)
inactive: alvocidib -0.021 | Tubastatin A 0.034 | [1] 0.027 | defactinib -0.024 | [2] -0.032 | encorafenib 0.011 | [3] -0.042 | alisertib -0.026 | [4] -0.017 | gefitinib 0.04 | lapatinib 0.035 | pictilisib -0.012 | crizotinib 0.013 | [5] -0.004 | duvelisib -0.004 | gandotinib 0.014 | tozasertib 0.006 | doramapimod -0.052 | bafetinib 0.117 | [6] -0.001

SCYL2 (UniProt Q6P3W7)
inactive: alvocidib -0.061 | Tubastatin A 0.045 | [1] 0.006 | defactinib -0.016 | [2] -0.003 | encorafenib 0.073 | [3] 0.028 | alisertib 0.025 | [4] 0.003 | gefitinib 0.016 | lapatinib 0.012 | pictilisib -0.014 | crizotinib 0 | [5] -0.108 | duvelisib -0.004 | gandotinib 0.07 | tozasertib 0.006 | doramapimod 0.07 | bafetinib -0.019 | [6] 0.06

SEC24A (UniProt O95486)
inactive: alvocidib 0.009 | Tubastatin A 0.007 | [1] -0.007 | defactinib 0.023 | [2] -0.018 | encorafenib -0.008 | [3] 0.022 | alisertib 0.091 | [4] -0.009 | gefitinib 0.023 | lapatinib -0.004 | pictilisib -0.03 | crizotinib 0.009 | [5] 0.048 | duvelisib 0.027 | gandotinib -0.077 | tozasertib -0.018 | doramapimod 0.006 | bafetinib 0.003 | [6] -0.002

SATB2 (UniProt Q9UPW6)
inactive: alvocidib 0.047 | Tubastatin A -0.096 | [1] -0.019 | defactinib -0.022 | [2] -0.031 | encorafenib 0.053 | [3] -0.022 | alisertib 0.024 | [4] -0.008 | gefitinib 0.01 | lapatinib -0.009 | crizotinib 0.009 | [5] 0.042 | duvelisib 0.03 | gandotinib -0.039 | tozasertib -0.008 | doramapimod 0.002 | [6] -0.008

SELENOT (UniProt P62341)
inactive: alvocidib -0.086 | Tubastatin A 0.024 | [1] 0.06 | [2] -0.049 | encorafenib 0.116 | [3] -0.029 | alisertib 0.024 | [4] -0.044 | gefitinib 0.018 | lapatinib 0.016 | pictilisib -0.216 | crizotinib 0.014 | [5] -0.019 | duvelisib 0.031 | gandotinib 0.071 | tozasertib 0.022 | doramapimod -0.018 | bafetinib -0.195 | [6] 0.029

SELENOO (UniProt Q9BVL4)
inactive: alvocidib 0.094 | Tubastatin A -0.411 | [2] 0.087 | alisertib 0.064 | [4] -0.094 | gefitinib -0.063 | lapatinib -0.004 | [5] -0.023 | duvelisib -0.139 | gandotinib -0.028 | [6] -0.105

SCG3 (UniProt Q8WXD2)
inactive: alvocidib -0.034 | [1] 0.03 | defactinib 0.073 | [2] -0.156 | encorafenib 0.019 | [3] -0.199 | alisertib -0.024 | gefitinib 0.046 | crizotinib 0.014 | [5] -0.048 | duvelisib 0.147 | gandotinib 0.003 | tozasertib 0.04 | doramapimod -0.072 | [6] 0.059

Two entries drawn at random from the list so far:
SATB2 (UniProt Q9UPW6)
inactive: alvocidib 0.047 | Tubastatin A -0.096 | [1] -0.019 | defactinib -0.022 | [2] -0.031 | encorafenib 0.053 | [3] -0.022 | alisertib 0.024 | [4] -0.008 | gefitinib 0.01 | lapatinib -0.009 | crizotinib 0.009 | [5] 0.042 | duvelisib 0.03 | gandotinib -0.039 | tozasertib -0.008 | doramapimod 0.002 | [6] -0.008

SELENOO (UniProt Q9BVL4)
inactive: alvocidib 0.094 | Tubastatin A -0.411 | [2] 0.087 | alisertib 0.064 | [4] -0.094 | gefitinib -0.063 | lapatinib -0.004 | [5] -0.023 | duvelisib -0.139 | gandotinib -0.028 | [6] -0.105

Next part

SASH1 (UniProt O94885)
inactive: alvocidib -0.063 | Tubastatin A 0.046 | [1] 0.034 | [2] -0.033 | encorafenib 0.041 | [3] 0.022 | alisertib 0.011 | [4] -0.023 | gefitinib 0.103 | lapatinib -0.007 | pictilisib 0.128 | crizotinib 0.029 | [5] 0.145 | duvelisib 0.024 | gandotinib -0.077 | tozasertib 0.011 | doramapimod -0.037 | bafetinib -0.071 | [6] 0.004

SDHB, A0A087WWT1
inactive: alvocidib 0.239 | Tubastatin A 0.03 | [1] -0.296 | defactinib 0.019 | [2] -0.051 | encorafenib -0.027 | [3] -0.094 | alisertib -0.052 | [4] -0.06 | gefitinib -0.125 | lapatinib -0.019 | crizotinib -0.405 | [5] -0.181 | duvelisib -0.023 | gandotinib -0.124 | tozasertib 0.148 | doramapimod 0.502 | [6] 0.48

SAGE1 (UniProt Q9NXZ1)
inactive: alvocidib 0.081 | Tubastatin A 0.046 | [1] 0.059 | [2] 0.093 | encorafenib -0.005 | [3] -0.048 | alisertib 0.038 | gefitinib -0.082 | crizotinib 0.053 | [5] 0.003 | duvelisib 0.128 | gandotinib 0.017 | tozasertib -0.024 | doramapimod 0.08 | [6] 0.017

SENP3 (UniProt Q9H4L4)
inactive: alvocidib -0.12 | [1] 0.1 | defactinib 0.023 | [2] -0.056 | encorafenib -0.109 | [3] 0.284 | [4] -0.01 | lapatinib -0.093 | crizotinib -0.03 | [5] 0.016 | duvelisib 0.03 | gandotinib 0.15 | tozasertib 0.199 | doramapimod -0.062 | [6] 0.188

SCGB1D2 (UniProt O95969)
inactive: alvocidib 0.219 | Tubastatin A 0.179 | [1] -0.356 | [2] -0.789 | encorafenib 0 | [3] 0.074 | alisertib -0.052 | [4] 0.011 | gefitinib 0.051 | lapatinib 0.129 | pictilisib 0.358 | crizotinib -0.344 | [5] 0.57 | duvelisib -0.031 | gandotinib -0.325 | tozasertib 0.81 | doramapimod 0.084 | bafetinib 0.267 | [6] 0.319

SEL1L3 (UniProt Q68CR1)
inactive: alvocidib -0.017 | Tubastatin A 0.051 | [1] -0.234 | defactinib 0.028 | [2] -0.063 | encorafenib -0.088 | [3] -0.061 | alisertib 0.093 | gefitinib -0.218 | pictilisib -0.036 | crizotinib -0.085 | [5] 0.092 | duvelisib 0.039 | gandotinib -0.04 | tozasertib 0.066 | doramapimod -0.066 | bafetinib -0.07 | [6] 0.025

SCNM1 (UniProt Q9BWG6)
inactive: alvocidib -0.005 | Tubastatin A 0.035 | [1] 0.117 | [2] 0.127 | encorafenib 0.115 | [3] -0.311 | alisertib 0.035 | [4] 0.15 | gefitinib 0.114 | lapatinib 0.006 | crizotinib 0.057 | [5] 0.022 | duvelisib 0.057 | gandotinib 0.015 | tozasertib -0.039 | doramapimod -0.017 | [6] -0.157

SEC63 (UniProt Q9UGP8)
inactive: alvocidib -0.024 | Tubastatin A 0.033 | [1] 0.016 | defactinib 0.011 | [2] 0.012 | encorafenib 0.009 | [3] -0.09 | alisertib 0.005 | [4] 0.014 | gefitinib 0.017 | lapatinib -0.006 | pictilisib -0.003 | crizotinib 0.017 | [5] -0.062 | duvelisib 0.017 | gandotinib 0.041 | tozasertib -0.032 | doramapimod -0.019 | bafetinib 0.004 | [6] 0.042

SAMD9 (UniProt Q5K651)
inactive: alvocidib 0.029 | Tubastatin A -0.015 | encorafenib 0.07 | [3] -0.046 | alisertib 0.017 | [4] 0.067 | gefitinib -0.03 | lapatinib 0.05 | crizotinib 0.064 | [5] -0.095 | gandotinib -0.047 | tozasertib 0.022 | doramapimod 0.153 | [6] 0.007
